Measurements: publication PMC8658989 (Molecules, 2021)
Some peptides are written in HELM: one residue between dots, names in brackets for other building blocks, links after the first $.

Assay: general procedure: Fmoc solid-phase peptide synthesis; Rink amide MBHA resin; HBTU, DIC or PyBOP (HOBt/DIEA)
Conditions: whole synthesis

Going from Caf-(KLβ-AKLβ-AK)2-NH2 to “PEPTIDE1{[Caf].K.L.A.K.L.A.K.K.L.A.K.L.A.K.[am]}$$$$V2.0”, the “crude HPLC purity” value falls from 100% to 98%.

In the case of 1,8-NphtG-(KLAKLAK)2-NH2, the “crude HPLC purity” value was 96%.
